Measurements: paper PMC8616538
Results are given in words; binding and its absence hold for the method and conditions named. Binding seen in cells or lysates may run through a third protein. Some results given as binding are weak or reduced against the parent protein; the word gives no strength. Values belong to the substance of their own block, whether it stands above or below them.

By UniProt entry, the sequences of proteins in these tests, tags left out. Where a name states a change or a piece, a line headed by the entry shows the natural chain unless it says otherwise.
UniProt O43734: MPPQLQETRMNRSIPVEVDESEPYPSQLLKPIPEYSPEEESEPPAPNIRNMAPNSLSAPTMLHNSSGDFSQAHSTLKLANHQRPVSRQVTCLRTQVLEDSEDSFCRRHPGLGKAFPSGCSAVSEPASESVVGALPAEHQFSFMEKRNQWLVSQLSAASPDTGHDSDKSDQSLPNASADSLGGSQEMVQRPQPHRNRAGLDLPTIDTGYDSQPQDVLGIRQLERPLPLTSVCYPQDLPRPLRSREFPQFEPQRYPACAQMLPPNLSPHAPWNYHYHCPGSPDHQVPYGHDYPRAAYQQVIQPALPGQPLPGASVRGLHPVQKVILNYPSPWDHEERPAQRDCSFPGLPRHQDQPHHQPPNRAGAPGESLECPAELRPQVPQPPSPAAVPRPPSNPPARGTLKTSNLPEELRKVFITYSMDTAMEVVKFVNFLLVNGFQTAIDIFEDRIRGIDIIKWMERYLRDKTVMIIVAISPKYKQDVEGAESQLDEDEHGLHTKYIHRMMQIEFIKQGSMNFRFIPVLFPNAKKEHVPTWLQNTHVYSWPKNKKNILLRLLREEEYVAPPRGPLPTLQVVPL
UniProt Q8IUC6: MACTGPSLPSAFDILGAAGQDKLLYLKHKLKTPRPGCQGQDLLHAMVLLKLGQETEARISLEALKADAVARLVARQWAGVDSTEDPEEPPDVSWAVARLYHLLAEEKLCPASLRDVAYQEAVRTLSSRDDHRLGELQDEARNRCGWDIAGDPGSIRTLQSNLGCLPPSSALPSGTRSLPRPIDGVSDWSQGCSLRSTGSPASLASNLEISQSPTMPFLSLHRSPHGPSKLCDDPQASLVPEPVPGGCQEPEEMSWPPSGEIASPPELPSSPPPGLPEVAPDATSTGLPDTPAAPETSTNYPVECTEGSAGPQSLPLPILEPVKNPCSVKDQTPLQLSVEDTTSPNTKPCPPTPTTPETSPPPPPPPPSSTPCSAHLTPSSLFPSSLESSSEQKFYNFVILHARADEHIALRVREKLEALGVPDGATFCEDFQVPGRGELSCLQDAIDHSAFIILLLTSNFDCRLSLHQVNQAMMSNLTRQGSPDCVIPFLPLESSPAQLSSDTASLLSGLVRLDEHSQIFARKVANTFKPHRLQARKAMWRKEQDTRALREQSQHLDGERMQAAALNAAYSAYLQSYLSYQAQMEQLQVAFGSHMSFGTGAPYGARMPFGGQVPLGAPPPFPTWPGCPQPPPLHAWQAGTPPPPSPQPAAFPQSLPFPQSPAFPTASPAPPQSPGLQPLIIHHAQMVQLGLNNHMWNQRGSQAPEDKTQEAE

Assays:
[1] = target: FLAG-tagged Act1 (Act1-FLAG), expressed in HEK293FT cells (UniProt O43734); test: co-IP; whole cell extracts of transfected HEK293FT cells; IP with anti-FLAG antibody and Protein G Sepharose overnight; lysis buffer 10 mM Hepes, 50 mM NaCl, 1 mM EDTA, 10% glycerol, 1% Triton; Western blot
[2] = target: FLAG-tagged Act1 (Act1-FLAG), expressed in HeLa cells (UniProt O43734); test: proximity ligation; HeLa cells transfected with FLAG-tagged Act1 and HA-tagged TICAM-1, fixed with 4% PFA, Duolink in situ PLA kit
[3] = target: endogenous TICAM-1 of HeLa cells (human (endogenous in HeLa)) (UniProt Q8IUC6); test: co-IP; whole cell extracts of HeLa cells, untreated or treated with 100 ng/ml IL-17A; IP with anti-TICAM-1 antibody or control IgG; Western blot
[4] = target: endogenous Act1 of HeLa cells (human (endogenous in HeLa)) (UniProt O43734); test: proximity ligation; HeLa cells stimulated with 0 or 100 ng/ml IL-17A for 15 min, fixed; anti-Act1 and anti-TICAM-1 antibodies; Duolink in situ PLA kit
[5] = target: endogenous Act1 of HeLa cells (human (endogenous in HeLa)) (UniProt O43734); test: co-IP; whole cell extracts of HeLa cells (untransfected, transfected with empty, TICAM-1-HA or TICAM-1-TIR-HA vector, or TICAM-1 KO), untreated or treated with IL-17A (50 or 100 ng/ml); IP with anti-Act1 antibody or control IgG; Western blot

Substance: HA-tagged TICAM-1 (TICAM-1-HA), expressed in HEK293FT cells (from UniProt Q8IUC6 1-712)
binding [1]: binds

Substance: HA-tagged TICAM-1 (TICAM-1-HA), expressed in HeLa cells (from UniProt Q8IUC6 1-712)
binding [2]: binds

Further lines, results first:

binding [1]: binds
Substance: HA-tagged TIR domain of TICAM-1 (TICAM-1-TIR-HA), expressed in HEK293FT cells (from UniProt Q8IUC6 393-553) (domain or fragment)

binding [3]: binds
Substance: endogenous Act1 of HeLa cells (from UniProt O43734 1-574)

binding [4]: binds
binding [5]: binds
Substance: endogenous TICAM-1 of HeLa cells (from UniProt Q8IUC6 1-712)
